According to patent US11448654B2, “Protein-protein interaction assessed by detecting localized coiled coil subunits” (The Regents of the University of California, priority 2017, dated 2022):
At least one structure is not confirmed: it was looked up by name or label, or the drawing left a doubt.

Amino acid sequences for entries named in this document (tags omitted). Residues count along the entry.
UniProt Q00987, 26-109 limits assumed: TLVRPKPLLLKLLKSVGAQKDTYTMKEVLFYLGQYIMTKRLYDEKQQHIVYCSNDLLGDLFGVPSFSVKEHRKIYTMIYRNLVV

Molecular target: T1, p53 and HDM2 (Homo sapiens, UniProt Q00987)
T1 construct: expressed in transfected cells; host or cells: HEK293
Test: Inducible SPARK system for dissociation of p53 and HDM2 in HEK293 cells
Assay type: cell-based
Details: Frb-p53-HOTag6, FKBP12-EGFP-HOTag3, HDM2-IFP2 in HEK293 cells

SMILES: CO[C@H]1C[C@@H]2CC[C@@H](C)[C@@](O)(O2)C(=O)C(=O)N2CCCC[C@H]2C(=O)O[C@H]([C@H](C)C[C@@H]2CC[C@@H](O)[C@H](OC)C2)CC(=O)[C@H](C)/C=C(\C)[C@@H](O)[C@@H](OC)C(=O)[C@H](C)C[C@H](C)/C=C/C=C/C=C/1C [rapamycin]
- formation of green and infrared fluorescent droplets: rapid formation of green and infrared fluorescent droplets within a few minutes
